Laboratory results published in the supplement of paper PMC10735217.
Where a name gives a salt, the structure may show the parent alone. The list shows a part of the results. This data set is noisy: repeats of one test often differ as much as different tests do.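 The human kidney-derived cells carry a stably integrated construct of eight TEAD-binding elements driving luciferase, read by luminescence in a drug-repurposing library screen. A compound counts as a hit when its signal is more than five robust Z scores above the plate mean.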

Tested on: HEK293A TEAD-LUC reporter
Assay: TEAD-luciferase reporter activity (YAP activation), robust Z score vs plate; higher = stronger YAP/TEAD activation
Conditions: 24 h

SMILES | TEAD-luciferase reporter activity (compound concentration: 200 nM) | TEAD-luciferase reporter activity (compound concentration: 2 uM) | TEAD-luciferase reporter activity (compound concentration: 10 uM)
CCc1cc(OCc2ccc(-c3ccccc3-c3nnn[nH]3)cc2)c2ccccc2n1 | inactive: -0.554 | inactive: -0.399 | inactive: 4.75
COCCCOc1cc(C[C@@H](C[C@H](N)[C@@H](O)C[C@H](C(=O)NCC(C)(C)C(N)=O)C(C)C)C(C)C)ccc1OC | inactive: -2.47 | inactive: -0.0469 | inactive: 2.25
C=CC1=C(C(=O)O)N2C(=O)[C@@H](NC(=O)/C(=N\O)c3csc(N)n3)[C@H]2SC1 | inactive: -1.63 | – | inactive: -1.88
C=CC1=C(C(=O)O)N2C(=O)[C@@H](NC(=O)/C(=N\O)c3csc(N)n3)[C@H]2SC1 [cefdinir] | – | inactive: -2.53 | –
OCC1CNCC(O)C1O (centres undefined) | inactive: 3.1 | inactive: -1.07 | inactive: 0.47
Nc1nc(=O)c2ncn(CCC(O)CO)c2[nH]1 (centres undefined) [buciclovir] | inactive: 0.85 | inactive: 0.143 | inactive: 0.675
CN(C)C(=O)C1CCCN(c2nc3ncccc3o2)C1 (centres undefined) | inactive: 1.83 | – | inactive: 1.97
C1N2CN3CN1CN(C2)C3 | inactive: -0.877 | inactive: -1.09 | inactive: -0.349
N[C@H](Cc1ccccc1)C(=O)O | inactive: 2.46 | inactive: 0.57 | inactive: 0.00179
Cc1nc(O)c(C#N)cc1-c1ccc(C#N)cc1 | inactive: 0.606 | inactive: 0.128 | inactive: 0.33
CC(=O)NCCC(=O)N1Cc2ccccc2CC2(CCCN2CCc2ccc(C)cc2)C1 (centres undefined) | inactive: 0.519 | – | inactive: 1.03
Nc1cc(N)c(N=Nc2ccc(S(N)(=O)=O)cc2)c(C(=O)O)c1 | inactive: -0.633 | inactive: 1.67 | inactive: -0.604
CCCCC1C(=O)N(c2ccccc2)N(c2ccc(O)cc2)C1=O (centres undefined) [Oxyphenbutazone] | inactive: -1.63 | inactive: 0.328 | inactive: -0.689
CC(N)CCCC(C)(C)O (centres undefined) | inactive: 2.03 | inactive: 0.688 | inactive: -0.0362
CNC(=O)[C@@H](NC(=O)[C@H](CC(C)C)NC(=O)C(S)CCN1C(=O)N(C)C(C)(C)C1=O)C(C)(C)C (some centres undefined) | inactive: 4.56 | inactive: 1.27 | inactive: 1.19
CC(=O)OC(C)C(=O)OC(C)C(=O)O (centres undefined) | inactive: -0.515 | inactive: -0.812 | inactive: -0.482
CC(=O)OCC(=O)[C@@]1(OC(=O)c2ccco2)[C@H](C)C[C@H]2[C@@H]3CCC4=CC(=O)C=C[C@]4(C)[C@@]3(F)[C@@H](O)C[C@@]21C [dexamethasone acefurate] | inactive: -1.55 | inactive: 1.49 | active: 7.43
O=C(NNC(=O)[C@@H]1CC[C@@H]2CN1C(=O)N2OS(=O)(=O)O)[C@@H]1CCCNC1 [Zidebactam] | inactive: 2.87 | inactive: 3.9 | inactive: 0.246

Single values from above:
Cc1nc(O)c(C#N)cc1-c1ccc(C#N)cc1 – TEAD-luciferase reporter activity (compound concentration: 2 uM): inactive: 0.128
OCC1CNCC(O)C1O (centres undefined) – TEAD-luciferase reporter activity (compound concentration: 2 uM): inactive: -1.07

The list continues.

SMILES | TEAD-luciferase reporter activity (compound concentration: 200 nM) | TEAD-luciferase reporter activity (compound concentration: 2 uM) | TEAD-luciferase reporter activity (compound concentration: 10 uM)
Cc1ccc2c(Br)cc(Br)c(OC(=O)c3ccc(F)cc3)c2n1 | inactive: -0.719 | inactive: 0.746 | inactive: 1.69
CCCCC(CC)CNC(=N)NC(=N)NCCCCCCNC(=N)NC(=N)NCC(CC)CCCC (centres undefined) | – | inactive: -0.894 | –
CCCCC(CC)CNC(=N)NC(=N)NCCCCCCNC(=N)NC(=N)NCC(CC)CCCC (centres undefined) [Alexidine dihydrochloride] | inactive: -1.68 | – | inactive: 1.21
COc1cc2nc(N3CCN(C(=O)COc4c(OC)cccc4C(C)C)CC3)nc(N)c2cc1OC | inactive: -0.246 | inactive: -0.596 | inactive: -0.716
NS(=O)(=O)c1c(Cl)ccc(NC(=O)Nc2cccc(Cl)c2Cl)c1O | inactive: -0.662 | inactive: -0.0381 | inactive: -0.00558
CCCN1CCCC1CNC(=O)c1cc(S(N)(=O)=O)ccc1OC (centres undefined) [Prosulpride] | inactive: -1.06 | inactive: -0.326 | inactive: 0.273
CCOc1ccc(-c2nn3ncccc3c2-c2ccc(S(C)(=O)=O)cc2)cc1 | inactive: 0.326 | inactive: -1.1 | inactive: -2.03
CNC(=O)c1c(C)oc2cc(Oc3ccnc4cc(OCCN5CCOCC5)ccc34)ccc12 | active: 10.4 | inactive: -0.27 | inactive: -0.0586
CC#CCC(C)[C@H](O)/C=C/C1[C@H](O)C[C@@H]2Oc3c(CCCC(=O)O)cccc3[C@H]12 (some centres undefined) [beraprost sodium] | inactive: -0.85 | inactive: 1.21 | inactive: 2.38
C[C@@]1(C(=O)Nc2ccc(F)nc2)CCCN1c1nc(Nc2cc(C3CC3)[nH]n2)c2cccn2n1 | inactive: -2.18 | inactive: -2.42 | inactive: 1.92
O[C@@H]1CO[C@H]2[C@@H]1OC[C@H]2Oc1nc2nc(-c3ccc(-c4ccccc4)cc3)c(Cl)cc2[nH]1 | inactive: -0.218 | inactive: -1.03 | inactive: -1.34
OC[C@H]1O[C@@H](c2ccc(F)c(Cc3cc4ccccc4s3)c2)[C@H](O)[C@@H](O)[C@@H]1O [Ipragliflozin L-proline] | inactive: -1.14 | inactive: -1.89 | inactive: -2.29
Cc1cc(Nc2ncc(F)c(N[C@H]3[C@@H](C(N)=O)[C@@H]4C=C[C@H]3C4)n2)ccc1N1CCN(C)CC1 | inactive: 0.759 | inactive: 1.9 | inactive: 0.0309
CCCN(CCCCN1C(=O)CC2(CCCC2)CC1=O)C1COc2cccc(C(C)=O)c2C1 (centres undefined) | inactive: 0.835 | inactive: -1.3 | inactive: -0.00599
CC(=O)Nc1ccc(C(=O)Nc2ccccc2N)cc1 [Tacedinaline] | – | active: 16.4 | –
CC(=O)Nc1ccc(C(=O)Nc2ccccc2N)cc1 [CI994 (Tacedinaline)] | inactive: 0.132 | – | inactive: 2.08
CCC1OC(=O)C(C)C(OC2CC(C)(OC)C(O)C(C)O2)C(C)C(OC2OC(C)CC(N(C)C)C2O)C(C)(O)CC(C)C(=O)C(C)C(O)C1(C)O (centres undefined) [erythromycin, Andromaco] | inactive: -1.33 | inactive: -0.503 | inactive: 0.69
